How the values were obtained:
Assay type in all cases: physicochemical
[1] = Proton chemical shift of bound water of Ln(1)^3+ complexes relative to bulk water (1H NMR)
Text: As further illustrated in Table 1, the proton chemical shifts of bound water in these lanthanide-macrocylic complexes, δ, relative to bulk water, at 0 ppm are generally highly shifted, either more than 6 ppm downfield or upfield (i.e., ±6 ppm or more), depending upon the properties of the central lanthanide ions. At 1.5 Tesla (T), a magnetic field strength presently used by many commercial MRI scanners, the exchange limit regimes, Δω•τM, of Eu(1)^3+, Tb(1)^3+, Dy(1)^3+, and Ho(1)^3+ are all greater than 1. At higher fields, however, such as 4.7 T and 11.75 T, more lanthanide complexes have exchange limit regimes greater than 1, with Δω•τM increasing as field strength increases. Therefore, favorable MT contrast effects are available for a broad range of lanthanide-macrocylic complexes over a broad range of magnetic field strengths. […]

[2] = MT profiles (Z-profiles, CEST profiles) of Ln(1)^3+ complexes at 4.7 T; conditions: 62.5 mM, neutral pH, 1 s, 16 db
Protocol: In a second experiment, MT profiles, also known as Z-profiles or CEST profiles, were obtained for lanthanide-macrocylic complexes of the general formula Ln(1)^3+. FIGS. 4-7 show representative spectra in the absence of saturation (bulk water peak at 0 ppm truncated to make the bound water peaks more visible) and MT profiles for Eu(1)^3+, Pr(1)^3+, Nd(1)^3+ and Yb(1)^3+ complexes, respectively, all measured at 4.7 T. All experiments were conducted using aqueous 62.5 mM Ln(1)^3+ adjusted to neutral pH and about 22° C., using an saturation duration time of 1 s, RF power of 16 db, and a 2.5 cm surface coil. […] Among these three complexes, Eu(1)^3+, shown in FIG. 4, had the greatest effect when the saturating pulse was centered at about 50 ppm (arrow): about a 60% decrease in the magnetization of bulk water, Ms, as compared to the magnetization of bulk water in the absence of a saturating pulse, Mo. Importantly, as indicated by a Ms/Mo of about 100%, when the counter-position (i.e., −50 ppm) was saturated, there was no distortion in the bulk water signal. Of course when the saturation pulse is directed to 0 ppm (arrow) there is no signal and therefore Ms/Mo is about 0%.

[3] = Effect of saturation duration time and power on MT to bulk water, Ln(1)^3+; conditions: 4.7 T
[4] = 1H NMR spectra of Ln(9)^3+ complexes, exchangeable amide protons
Text: For certain Ln(9)^3+ complexes, for example, with Ln equal to Yb or Tm, the bound water molecules are ^1H NMR invisible probably due to the fast exchange between the bound water and the bulk water. […] Unfortunately, the NMR signal was invisible, probably due to its fast exchange with the bulk water. However, the eight exchangeable amide protons present as two resonance peaks with equivalent intensity, at −14.5 (Ha) and −17.7 (Hb) ppm, respectively, are visible.

[5] = Concentration dependence of MT effect of Yb(9)^3+; conditions: pH 7.4, room temperature
[6] = pH dependence of MT and MT ratios of Yb(9)^3+; conditions: 30 mM, 25° C.

| Structure (SMILES) | Observation of bound water [1] | MT properties on saturating bound water [2] | further results |
| --- | --- | --- | --- |
| CCOC(=O)CNC(=O)CN1CCN(CC(=O)NCC(=O)OCC)CCN(CC(=O)NCC(=O)OCC)CCN(CC(=O)NCC(=O)OCC)CC1.[Dy+3] [Dy(1)^3+] | No |  |  |
| CCOC(=O)CNC(=O)CN1CCN(CC(=O)NCC(=O)OCC)CCN(CC(=O)NCC(=O)OCC)CCN(CC(=O)NCC(=O)OCC)CC1.[Er+3] [Er(1)^3+] | No |  |  |
| CCOC(=O)CNC(=O)CN1CCN(CC(=O)NCC(=O)OCC)CCN(CC(=O)NCC(=O)OCC)CCN(CC(=O)NCC(=O)OCC)CC1.[Eu+3] [Eu(1)^3+] | Yes | strong MT properties | contrast with increasing saturation power [3]: contrast continuously improved |
| CCOC(=O)CNC(=O)CN1CCN(CC(=O)NCC(=O)OCC)CCN(CC(=O)NCC(=O)OCC)CCN(CC(=O)NCC(=O)OCC)CC1.[Ho+3] [Ho(1)^3+] | No |  |  |
| CCOC(=O)CNC(=O)CN1CCN(CC(=O)NCC(=O)OCC)CCN(CC(=O)NCC(=O)OCC)CCN(CC(=O)NCC(=O)OCC)CC1.[Nd+3] [Nd(1)^3+] | Yes | strong MT properties | contrast with increasing saturation power [3]: contrast continuously improved |
| CCOC(=O)CNC(=O)CN1CCN(CC(=O)NCC(=O)OCC)CCN(CC(=O)NCC(=O)OCC)CCN(CC(=O)NCC(=O)OCC)CC1.[Pr+3] [Pr(1)^3+] | Yes | strong MT properties |  |
| CCOC(=O)CNC(=O)CN1CCN(CC(=O)NCC(=O)OCC)CCN(CC(=O)NCC(=O)OCC)CCN(CC(=O)NCC(=O)OCC)CC1.[Sm+3] [Sm(1)^3+] | Yes |  |  |
| CCOC(=O)CNC(=O)CN1CCN(CC(=O)NCC(=O)OCC)CCN(CC(=O)NCC(=O)OCC)CCN(CC(=O)NCC(=O)OCC)CC1.[Tb+3] [Tb(1)^3+] | No |  |  |
| CCOC(=O)CNC(=O)CN1CCN(CC(=O)NCC(=O)OCC)CCN(CC(=O)NCC(=O)OCC)CCN(CC(=O)NCC(=O)OCC)CC1.[Tm+3] [Tm(1)^3+] | Yes |  |  |
| NC(=O)CN1CCN(CC(N)=O)CCN(CC(N)=O)CCN(CC(N)=O)CC1.[Tm+3] [Tm(9)^3+] |  |  | 1H NMR visibility of bound water molecules [4]: invisible |
| CCOC(=O)CNC(=O)CN1CCN(CC(=O)NCC(=O)OCC)CCN(CC(=O)NCC(=O)OCC)CCN(CC(=O)NCC(=O)OCC)CC1.[Yb+3] [Yb(1)^3+] | Yes | no MT effect could be observed |  |
| NC(=O)CN1CCN(CC(N)=O)CCN(CC(N)=O)CCN(CC(N)=O)CC1.[Yb+3] [Yb(9)^3+] |  |  | 1H NMR visibility of bound water molecules [4]: invisible; concentration at which paramagnetic relaxation effect predominates [5]: ≥ 20 mM; optimal concentration for MT effect [5]: about 20 mM; MTR (ratios of MT) versus pH [6]: increases as a function of increasing pH; pH of minimum in MT (Mon/Moff) ([6]; saturating amide protons): ~7.4 |

From patent publication US20020127182A1, “Paramagnetic metal ion-based macrocylic magnetization transfer contrast agents and method of use” (Board of Regents, The University of Texas System, priority 2000, published 2002)
